For 13 substances, binding results are on record in PMC12979858.

Sequences of proteins named here, by UniProt entry; tags and fusion partners are left off.
UniProt Q8CGF6: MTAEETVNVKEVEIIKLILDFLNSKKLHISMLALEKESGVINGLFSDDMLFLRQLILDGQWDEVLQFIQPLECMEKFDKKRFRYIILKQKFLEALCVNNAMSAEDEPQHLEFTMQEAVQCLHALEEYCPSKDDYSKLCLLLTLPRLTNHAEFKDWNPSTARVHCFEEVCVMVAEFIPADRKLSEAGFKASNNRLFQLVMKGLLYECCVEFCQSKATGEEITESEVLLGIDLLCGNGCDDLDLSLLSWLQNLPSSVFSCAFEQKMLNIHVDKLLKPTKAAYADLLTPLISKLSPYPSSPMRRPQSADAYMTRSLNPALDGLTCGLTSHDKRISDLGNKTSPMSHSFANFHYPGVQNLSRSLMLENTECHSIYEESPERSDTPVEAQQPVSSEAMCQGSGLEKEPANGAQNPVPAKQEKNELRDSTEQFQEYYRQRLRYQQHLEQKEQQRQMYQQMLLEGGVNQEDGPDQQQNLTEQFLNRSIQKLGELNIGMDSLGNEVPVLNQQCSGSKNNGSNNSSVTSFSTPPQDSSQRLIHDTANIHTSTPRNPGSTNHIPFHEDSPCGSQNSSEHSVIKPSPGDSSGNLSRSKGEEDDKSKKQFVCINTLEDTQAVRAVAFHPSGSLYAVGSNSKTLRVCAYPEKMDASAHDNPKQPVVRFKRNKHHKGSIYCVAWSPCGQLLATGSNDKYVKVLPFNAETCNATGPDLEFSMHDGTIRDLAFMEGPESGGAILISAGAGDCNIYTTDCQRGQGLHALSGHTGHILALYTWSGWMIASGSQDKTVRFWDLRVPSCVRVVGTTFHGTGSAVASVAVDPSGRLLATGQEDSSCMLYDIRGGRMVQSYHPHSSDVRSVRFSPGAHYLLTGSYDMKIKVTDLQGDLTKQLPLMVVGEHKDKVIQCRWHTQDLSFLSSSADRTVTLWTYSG
UniProt A6PWD2: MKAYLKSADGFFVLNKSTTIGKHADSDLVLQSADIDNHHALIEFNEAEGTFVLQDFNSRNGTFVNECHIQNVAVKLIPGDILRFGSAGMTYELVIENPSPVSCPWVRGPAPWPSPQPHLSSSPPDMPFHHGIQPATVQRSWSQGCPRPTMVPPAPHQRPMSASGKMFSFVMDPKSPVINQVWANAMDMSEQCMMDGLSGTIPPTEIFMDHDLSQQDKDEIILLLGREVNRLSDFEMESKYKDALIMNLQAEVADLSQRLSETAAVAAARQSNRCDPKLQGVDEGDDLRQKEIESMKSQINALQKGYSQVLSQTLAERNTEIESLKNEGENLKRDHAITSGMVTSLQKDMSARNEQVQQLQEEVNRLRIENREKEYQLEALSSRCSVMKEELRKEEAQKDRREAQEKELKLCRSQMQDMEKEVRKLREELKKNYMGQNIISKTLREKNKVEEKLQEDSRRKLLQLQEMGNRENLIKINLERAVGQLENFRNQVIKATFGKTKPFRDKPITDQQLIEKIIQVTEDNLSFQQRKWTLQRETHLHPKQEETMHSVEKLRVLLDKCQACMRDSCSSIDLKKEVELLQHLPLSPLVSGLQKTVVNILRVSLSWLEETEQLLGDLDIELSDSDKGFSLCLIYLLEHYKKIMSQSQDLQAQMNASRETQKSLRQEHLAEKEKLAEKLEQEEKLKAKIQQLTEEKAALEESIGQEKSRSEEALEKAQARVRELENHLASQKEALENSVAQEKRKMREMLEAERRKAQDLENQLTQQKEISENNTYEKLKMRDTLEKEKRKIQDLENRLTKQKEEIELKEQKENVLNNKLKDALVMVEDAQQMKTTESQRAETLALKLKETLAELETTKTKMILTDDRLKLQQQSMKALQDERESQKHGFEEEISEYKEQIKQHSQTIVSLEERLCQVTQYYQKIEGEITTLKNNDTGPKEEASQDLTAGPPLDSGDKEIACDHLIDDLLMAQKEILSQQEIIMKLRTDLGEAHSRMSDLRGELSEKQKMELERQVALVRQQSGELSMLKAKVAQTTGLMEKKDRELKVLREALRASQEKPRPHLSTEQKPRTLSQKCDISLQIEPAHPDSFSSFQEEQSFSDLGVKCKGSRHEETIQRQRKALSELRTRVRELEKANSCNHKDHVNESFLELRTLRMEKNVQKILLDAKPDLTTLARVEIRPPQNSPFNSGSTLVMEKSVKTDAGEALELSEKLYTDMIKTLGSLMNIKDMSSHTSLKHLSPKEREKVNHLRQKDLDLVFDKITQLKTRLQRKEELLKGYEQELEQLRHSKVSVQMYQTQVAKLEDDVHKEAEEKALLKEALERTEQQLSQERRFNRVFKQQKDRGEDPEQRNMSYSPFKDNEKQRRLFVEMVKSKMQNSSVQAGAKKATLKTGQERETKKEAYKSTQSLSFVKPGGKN
UniProt Q8R1Z4: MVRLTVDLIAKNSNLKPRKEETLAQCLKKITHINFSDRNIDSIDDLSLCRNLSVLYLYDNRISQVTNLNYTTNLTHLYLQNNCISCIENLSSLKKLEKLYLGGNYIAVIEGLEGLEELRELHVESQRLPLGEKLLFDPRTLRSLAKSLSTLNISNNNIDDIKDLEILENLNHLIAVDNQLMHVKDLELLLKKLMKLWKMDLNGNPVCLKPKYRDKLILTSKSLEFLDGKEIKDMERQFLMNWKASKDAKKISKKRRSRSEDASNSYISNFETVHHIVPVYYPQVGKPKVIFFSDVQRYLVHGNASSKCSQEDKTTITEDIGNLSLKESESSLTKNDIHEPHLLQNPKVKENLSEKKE
UniProt A9Q751: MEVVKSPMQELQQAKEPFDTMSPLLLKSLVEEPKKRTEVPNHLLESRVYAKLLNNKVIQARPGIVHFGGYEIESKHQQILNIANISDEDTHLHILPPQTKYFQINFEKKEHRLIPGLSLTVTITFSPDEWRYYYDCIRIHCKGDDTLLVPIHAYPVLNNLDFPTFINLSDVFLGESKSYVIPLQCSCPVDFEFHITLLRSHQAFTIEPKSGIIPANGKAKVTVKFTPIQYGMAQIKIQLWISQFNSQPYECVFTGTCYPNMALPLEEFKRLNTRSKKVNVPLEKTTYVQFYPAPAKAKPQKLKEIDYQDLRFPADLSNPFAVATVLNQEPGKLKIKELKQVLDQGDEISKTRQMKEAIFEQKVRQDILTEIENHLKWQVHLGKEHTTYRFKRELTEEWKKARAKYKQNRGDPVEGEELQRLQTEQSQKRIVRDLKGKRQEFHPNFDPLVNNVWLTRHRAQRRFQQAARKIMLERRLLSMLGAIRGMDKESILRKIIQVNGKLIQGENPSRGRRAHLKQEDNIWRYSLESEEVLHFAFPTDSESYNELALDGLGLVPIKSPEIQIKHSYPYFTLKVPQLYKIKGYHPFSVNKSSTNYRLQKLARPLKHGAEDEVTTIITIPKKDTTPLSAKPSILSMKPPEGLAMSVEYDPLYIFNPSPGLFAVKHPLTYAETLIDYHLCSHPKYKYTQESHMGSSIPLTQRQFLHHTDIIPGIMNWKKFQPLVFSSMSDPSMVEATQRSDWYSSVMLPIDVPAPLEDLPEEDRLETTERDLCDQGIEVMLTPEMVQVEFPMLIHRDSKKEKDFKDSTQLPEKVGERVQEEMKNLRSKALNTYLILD
UniProt Q8CG73: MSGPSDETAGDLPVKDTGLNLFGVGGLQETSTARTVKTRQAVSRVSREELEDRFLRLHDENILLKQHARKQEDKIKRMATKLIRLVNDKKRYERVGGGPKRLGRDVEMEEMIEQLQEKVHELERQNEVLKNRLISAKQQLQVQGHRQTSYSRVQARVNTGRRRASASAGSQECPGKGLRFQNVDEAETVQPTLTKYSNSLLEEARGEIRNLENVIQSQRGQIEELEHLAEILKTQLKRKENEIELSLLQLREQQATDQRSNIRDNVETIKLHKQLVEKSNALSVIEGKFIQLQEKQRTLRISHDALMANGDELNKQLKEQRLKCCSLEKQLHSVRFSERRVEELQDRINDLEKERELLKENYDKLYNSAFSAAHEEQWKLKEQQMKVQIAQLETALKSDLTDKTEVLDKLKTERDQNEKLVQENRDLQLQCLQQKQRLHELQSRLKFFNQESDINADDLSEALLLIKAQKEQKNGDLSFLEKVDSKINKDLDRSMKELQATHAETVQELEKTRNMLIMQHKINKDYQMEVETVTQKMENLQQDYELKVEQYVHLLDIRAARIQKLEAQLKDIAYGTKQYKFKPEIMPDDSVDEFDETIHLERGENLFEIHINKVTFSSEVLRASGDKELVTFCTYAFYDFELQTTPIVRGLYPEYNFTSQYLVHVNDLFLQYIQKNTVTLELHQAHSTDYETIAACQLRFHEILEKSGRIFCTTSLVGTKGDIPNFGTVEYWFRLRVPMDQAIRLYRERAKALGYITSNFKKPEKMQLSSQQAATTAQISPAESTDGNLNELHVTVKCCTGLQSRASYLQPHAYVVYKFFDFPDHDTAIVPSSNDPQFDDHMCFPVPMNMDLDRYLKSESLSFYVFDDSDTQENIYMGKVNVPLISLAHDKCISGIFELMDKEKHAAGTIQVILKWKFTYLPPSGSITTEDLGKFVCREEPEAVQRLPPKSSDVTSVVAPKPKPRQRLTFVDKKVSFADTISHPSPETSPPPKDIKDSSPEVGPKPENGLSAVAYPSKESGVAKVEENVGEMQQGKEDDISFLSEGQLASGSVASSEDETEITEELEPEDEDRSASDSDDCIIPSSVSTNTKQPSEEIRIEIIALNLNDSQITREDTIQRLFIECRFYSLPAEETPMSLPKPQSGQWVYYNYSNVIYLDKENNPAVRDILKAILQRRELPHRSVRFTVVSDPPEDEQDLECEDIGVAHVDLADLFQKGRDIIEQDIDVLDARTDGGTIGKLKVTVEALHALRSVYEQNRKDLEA
UniProt Q8C9J3: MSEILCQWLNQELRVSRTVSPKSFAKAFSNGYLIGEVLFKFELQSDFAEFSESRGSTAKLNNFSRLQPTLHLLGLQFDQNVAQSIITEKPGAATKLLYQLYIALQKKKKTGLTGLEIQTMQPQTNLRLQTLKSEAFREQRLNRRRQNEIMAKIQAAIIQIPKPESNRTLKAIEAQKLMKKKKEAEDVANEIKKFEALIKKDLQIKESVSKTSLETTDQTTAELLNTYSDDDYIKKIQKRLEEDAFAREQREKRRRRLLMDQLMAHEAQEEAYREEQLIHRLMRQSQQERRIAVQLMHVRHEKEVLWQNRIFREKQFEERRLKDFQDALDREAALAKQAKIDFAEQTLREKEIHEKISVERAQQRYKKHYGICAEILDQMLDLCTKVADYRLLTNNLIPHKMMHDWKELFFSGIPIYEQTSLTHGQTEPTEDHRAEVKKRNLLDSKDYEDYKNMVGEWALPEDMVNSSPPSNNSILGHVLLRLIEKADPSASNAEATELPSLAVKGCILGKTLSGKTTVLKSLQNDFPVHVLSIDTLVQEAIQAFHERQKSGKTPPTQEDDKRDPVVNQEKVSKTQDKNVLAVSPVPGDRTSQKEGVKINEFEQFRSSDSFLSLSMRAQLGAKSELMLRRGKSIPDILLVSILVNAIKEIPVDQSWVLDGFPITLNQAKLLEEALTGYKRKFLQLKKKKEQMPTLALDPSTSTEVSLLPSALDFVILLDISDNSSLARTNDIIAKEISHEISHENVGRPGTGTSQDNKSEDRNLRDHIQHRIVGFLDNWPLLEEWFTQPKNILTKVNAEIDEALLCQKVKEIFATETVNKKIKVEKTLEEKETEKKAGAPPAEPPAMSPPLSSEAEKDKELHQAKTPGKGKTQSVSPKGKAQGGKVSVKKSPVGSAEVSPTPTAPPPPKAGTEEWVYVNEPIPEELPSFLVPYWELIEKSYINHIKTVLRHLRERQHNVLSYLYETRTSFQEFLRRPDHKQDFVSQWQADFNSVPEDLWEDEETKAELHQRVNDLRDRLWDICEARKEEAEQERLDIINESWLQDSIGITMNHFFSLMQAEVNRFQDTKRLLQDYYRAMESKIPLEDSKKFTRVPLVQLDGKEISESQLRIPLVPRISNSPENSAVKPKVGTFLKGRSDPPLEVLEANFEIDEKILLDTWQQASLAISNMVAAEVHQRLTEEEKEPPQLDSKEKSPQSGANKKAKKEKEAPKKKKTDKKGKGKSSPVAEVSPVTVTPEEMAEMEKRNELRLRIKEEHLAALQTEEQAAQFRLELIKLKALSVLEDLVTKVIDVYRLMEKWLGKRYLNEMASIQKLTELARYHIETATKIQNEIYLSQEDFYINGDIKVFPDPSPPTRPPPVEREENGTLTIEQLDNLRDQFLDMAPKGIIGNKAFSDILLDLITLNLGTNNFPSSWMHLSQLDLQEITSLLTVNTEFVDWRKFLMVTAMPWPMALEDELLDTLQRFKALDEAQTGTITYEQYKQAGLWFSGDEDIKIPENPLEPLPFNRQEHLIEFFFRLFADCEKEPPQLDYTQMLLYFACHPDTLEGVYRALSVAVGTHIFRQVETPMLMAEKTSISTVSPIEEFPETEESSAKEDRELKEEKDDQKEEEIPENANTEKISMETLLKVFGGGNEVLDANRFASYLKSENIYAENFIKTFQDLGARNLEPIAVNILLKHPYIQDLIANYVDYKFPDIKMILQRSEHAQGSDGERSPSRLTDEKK

These are yes or no findings as the source states them, for the method shown. Binding seen in cells or lysates may run through a third protein. Here binding means that the protein was enriched with, or labelled near, the bait; the list need not be complete.

For the experiment, the target named is APEX2-WDR47 (mouse) (UniProt Q8CGF6). Put plainly: proximity labelling; APEX2-WDR47 expressed in mEPCs by adenovirus; 500 uM biotin-phenol at 37 C for 30 min, 1 mM H2O2 for 1 min; lysis in RIPA buffer, biotinylated proteins on streptavidin-conjugated agarose beads, shotgun mass spectrometry; cutoff >= twofold peptide ratio against the mock-treated control.

Regarding ADGB (from UniProt G3UZ78 1-1657), the binding result is reported as “binds”.
The result for CCDC108 (from UniProt Q3V0B4 1-1847) reads “binds”; that for CEP290 (from UniProt Q6A078 1-2472), “binds”; that for DNAH3 (from UniProt Q8BW94 1-4083), “binds”.
The result for EFCAB6 (from UniProt Q6P1E8 1-1516) reads “binds”.
Consider FHAD1 (from UniProt A6PWD2 1-1420), for which the binding result is “binds”.
Turning to HYDIN (from UniProt Q80W93 1-5154), the binding result was “binds”.
As for “JHY (endogenous) (from UniProt E9Q793 1-770)”, the binding result is on record as “binds”.
The result for LRRC67 (from UniProt Q8R1Z4 1-357) reads “binds”; that for PCDP1 (from UniProt A9Q751 1-836), “binds”.
Then RPGRIP1L (from UniProt Q8CG73 1-1264), with “binds”; and SPAG17 (from UniProt Q5S003 1-2320), with “binds”.
The result for SPEF2 (from UniProt Q8C9J3 1-1724) reads “binds”.
